Data published in the supplement of paper PMC4604168 (melanoma cell lines).
The list shows a part of the results. Single values are uncertain, as repeats are few or missing.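 The apoptosis fraction was the count of cleaved-PARP antibody-stained nuclei relative to all DNA-stained nuclei, imaged in 1,536-well plates. Screening doses were set so most cells survived, and baseline and induced cleaved-PARP levels vary greatly across cell lines.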

Legend:
Test in all cases: cleaved PARP positive nuclei fraction relative to DMSO control; melanoma cells; higher = more apoptosis
Settings in all cases: library dose: low library concentration; 72 h
501Mel = system: 501Mel
A101D = system: A101D
A2058 = system: A2058
A375 = system: A375
C32 = system: C32
CBRC013 = system: CBRC013 (line from a melanoma biopsy)
CBRC014 = system: CBRC014 (line from a melanoma biopsy)
CBRC016 = system: CBRC016 (line from a melanoma biopsy)
CBRC017 = system: CBRC017 (line from a melanoma biopsy)

Structure (SMILES) | cleaved PARP positive nuclei fraction (501Mel) | cleaved PARP positive nuclei fraction (A101D) | cleaved PARP positive nuclei fraction (A2058) | cleaved PARP positive nuclei fraction (A375) | cleaved PARP positive nuclei fraction (C32) | cleaved PARP positive nuclei fraction (CBRC013) | cleaved PARP positive nuclei fraction (CBRC014) | cleaved PARP positive nuclei fraction (CBRC016) | cleaved PARP positive nuclei fraction (CBRC017)
Cn1nnc2c(C(N)=O)ncn2c1=O [temozolomide] + COc1cc2ncnc(Nc3ccc(Oc4ccccc4)cc3)c2cc1OC [SrcI1] (first compound 2 µM, partner dose 2 µM) | 110% | 121% | 75.4% | 47.6% | 60.5% | 177% | 115% | 99.8% | 54.9%
NC(=O)Nc1cc(-c2cccc(F)c2)sc1C(=O)N[C@H]1CCCNC1 + Oc1nc(-c2ccc(C(F)(F)F)cc2)nc2c1CSCC2 [XAV939] (first compound 0.02 µM, partner dose 2 µM) | 126% | 166% | 112% | 389% | 38.3% | 217% | 101% | 87.4% | 84.8%
Cn1nnc2c(C(N)=O)ncn2c1=O [temozolomide] + Oc1cc(-c2nc(-c3ccccc3)[nH]c2-c2ccncc2)ccc1Cl [L779450] (first compound 2 µM, partner dose 0.2 µM) | 93.2% | 102% | 162% | 167% | 56.2% | 38.9% | 110% | 183% | 128%
O=C(Nc1cccc(Cl)c1)Nc1ncc(CCNc2ncnc3ccsc23)s1 + O=C1NC(=O)/C(=C/c2ccc(-c3ccc(F)cc3O)o2)S1 [AS252424] (first compound 0.0008 µM, partner dose 1 µM) | 75.9% | 115% | 85.9% | 233% | 91.1% | 269% | 78.4% | 62.6% | 92.2%
Cn1cncc1[C@@](N)(c1ccc(Cl)cc1)c1ccc2c(c1)c(-c1cccc(Cl)c1)cc(=O)n2C [tipifarnib] + Oc1nc(-c2ccc(C(F)(F)F)cc2)nc2c1CSCC2 [XAV939] (first compound 0.01 µM, partner dose 2 µM) | 78.7% | 124% | 102% | 237% | 53.3% | 412% | 103% | 61.1% | 86.8%
C=CCn1c(=O)c2cnc(Nc3ccc(N4CCN(C)CC4)cc3)nc2n1-c1cccc(C(C)(C)O)n1 + COc1ccc2c(c1)CCC1C2CCC2(C)C(NCCCCCCN3C(=O)C=CC3=O)CCC12 [U73122] (first compound 0.02 µM, partner dose 0.4 µM) | 141% | 220% | 253% | 979% | 252% | 172% | 115% | 92.5% | 51.2%
CC1(C)NC(=O)N(c2ccc([N+](=O)[O-])c(C(F)(F)F)c2)C1=O [nilutamide] + CC(C)CCN1c2nc(Nc3cc(F)c(O)c(F)c3)ncc2N(C)C(=O)C1C [BID1870] (first compound 1 µM, partner dose 0.2 µM) | 165% | 262% | 126% | 95.5% | 78.5% | 88.3% | 104% | 109% | 90.3%
OCCn1cc(-c2cnc3nnn(Cc4ccc5ncccc5c4)c3n2)cn1 + O=S(=O)(c1ccccc1)N(CC(F)(F)F)c1ccc(C(O)(C(F)(F)F)C(F)(F)F)cc1 [T0901317] (first compound 1 µM, partner dose 1.4 µM) | 40.8% | 59.4% | 67.3% | 80.8% | 39.8% | 373% | 78.2% | 39.1% | 89.4%
Cc1cc(N2CCOCC2)cc2[nH]c(-c3c(NC[C@@H](O)c4cccc(Cl)c4)cc[nH]c3=O)nc12 + COc1cc2ncnc(Nc3ccc(Oc4ccccc4)cc3)c2cc1OC [SrcI1] (first compound 0.2 µM, partner dose 2 µM) | 95.8% | 306% | 29.5% | 250% | 43.6% | 118% | 92.9% | 105% | 43.3%
Cn1nnc2c(C(N)=O)ncn2c1=O [temozolomide] + COc1cc(N2CCC(N3CCN(C)CC3)CC2)ccc1Nc1ncc(Cl)c(Nc2ccccc2S(=O)(=O)C(C)C)n1 [NVP-TAE684] (first compound 2 µM, partner dose 0.08 µM) | 68.1% | 65.7% | 375% | 255% | 92% | 95.8% | 103% | 60.9% | 82.5%
CC1(C)NC(=O)N(c2ccc([N+](=O)[O-])c(C(F)(F)F)c2)C1=O [nilutamide] + CCN(CC)CCCCNc1ncc2cc(-c3cc(OC)cc(OC)c3)c(NC(=O)NC(C)(C)C)nc2n1 [PD173074] (first compound 1 µM, partner dose 0.1 µM) | 94.7% | 80.1% | 129% | 91.7% | 32.9% | 204% | 76.3% | 18.7% | 64.6%
Cn1cncc1[C@@](N)(c1ccc(Cl)cc1)c1ccc2c(c1)c(-c1cccc(Cl)c1)cc(=O)n2C [tipifarnib] + O=S(=O)(c1ccccc1)N(CC(F)(F)F)c1ccc(C(O)(C(F)(F)F)C(F)(F)F)cc1 [T0901317] (first compound 0.01 µM, partner dose 1.4 µM) | 128% | 321% | 116% | 298% | 45% | 107% | 88.2% | 165% | 91.1%
